{"source": "paper PMC10043390", "about": "“Novel 2-substituted-5-(4-chloro-2-phenoxy)phenyl-1,3,4-oxadiazole derivatives, ligands of GABAA/benzodiazepine receptor complex: Design, synthesis, radioligand binding assay, and pharmacological evaluation” (EXCLI Journal, 2023)", "key": {"[1]": {"biological_target": "benzodiazepine receptor of rat brains", "experiment": "Radioligand receptor binding assay ([3H]-flumazenil competitive binding)", "conditions": "for Specific binding of [3H]flumazenil: mean ± SEM, n=3", "experimental": "All of the binding assays were performed in triplicates in a total volume of 500 µL at 30 °C for 35 min (Ahmadi et al., 2013[1]).\n(§1) Kd and Bmax in radioligand binding assay were calculated by non-linear regression analysis of the saturation and competitive curve data (Program Prism, Graph Pad, San Diego, CA). The IC50s of the novel compounds in binding studies were determined using […]. […] In PTZ and MES tests, the data were presented as a mean with 95% confidence intervals. In the rest of the pharmacological evaluations, one-way ANOVA with Tukey's HSD post-hoc test was used. All the data were presented as mean ± SEM and P<0.05 was considered statistically significant."}, "male NMRI albino mice [2]": {"tested_on": "male NMRI albino mice", "experiment": "PTZ-induced lethal convulsion test", "assay_type": "in vivo", "conditions": "Mus musculus; i.p. 30 min before PTZ 100 mg/kg; mean with 95% confidence intervals", "experimental": "(§2) To assess the anticonvulsant activity of the novel compound 6a, we used PTZ-induced convulsion and MES tests (Guerrini et al., 2008[10]; Lankau et al., 2007[13]). In both models, the ability of the novel compound to protect mice against induced seizures was evaluated. Animals were closely observed for 30 minutes after injection of the lethal dose of PTZ (100 mg/kg) and the number of dead mice after convulsion was reported. In the MES test, each subject was observed closely and the incidence of hind limb tonic extension (HLTE) in the subjects after application of MES (60 Hz, 37.2 mA, and 0.25 s) was reported.\nas §1"}, "male NMRI albino mice [3]": {"tested_on": "male NMRI albino mice", "experiment": "Maximal electroshock (MES) test", "assay_type": "in vivo", "conditions": "Mus musculus, ip; i.p. 30 min before MES (60 Hz, 37.2 mA, 0.25 s), HLTE; mean with 95% confidence intervals", "experimental": "as §2, §1"}, "male NMRI albino mice [4]": {"tested_on": "male NMRI albino mice", "experiment": "Pentobarbital-induced sleep test", "assay_type": "in vivo", "source_text": "The duration of the loss of the righting reflex was considered as the sleeping time. […] For prevention of hypothermia during the experiment, animals were placed on an electric blanket (Khoramjouy et al., 2021[11])."}, "male NMRI albino mice [5]": {"tested_on": "male NMRI albino mice"}}, "note": "“And” between values parts separate entries of the source, which are not always exact repeats. Equal entries are not always repeated."}
{"smiles": "CN1C(=O)CN=C(c2ccccc2)c2cc(Cl)ccc21", "note": "[Diazepam, diazepam, reference compound]", "values": [{"measurement": "Ki", "setting": "[1]; [3H]-flumazenil competitive binding", "result": 1.53, "unit": "nM"}, {"measurement": "Specific binding of [3H]flumazenil", "setting": "[1]; log[L] -7.0", "result": "0.1733±0.0120", "unit": "cpm"}, {"measurement": "Specific binding of [3H]flumazenil", "setting": "[1]; log[L] -8.0", "result": "0.2633±0.0133", "unit": "cpm"}, {"measurement": "Specific binding of [3H]flumazenil", "setting": "[1]; log[L] -8.5", "result": "0.3533±0.0033", "unit": "cpm"}, {"measurement": "Specific binding of [3H]flumazenil", "setting": "[1]; log[L] -9.0", "result": "0.4467±0.0033", "unit": "cpm"}, {"measurement": "Specific binding of [3H]flumazenil", "setting": "[1]; log[L] -9.5", "result": "0.4967±0.0033", "unit": "cpm"}, {"measurement": "Specific binding of [3H]flumazenil", "setting": "[1]; log[L] -10.0", "result": "0.5467±0.0234", "unit": "cpm"}, {"measurement": "Specific binding of [3H]flumazenil", "setting": "[1]; log[L] -11.0", "result": "0.5833±0.0088", "unit": "cpm"}, {"measurement": "IC50", "setting": "[1]; reduction of specific binding of [3H]-flumazenil by 50 %, triplicates, 30 °C, 35 min", "result": "2.5 ± 0.07", "unit": "nM"}, {"measurement": "ED50", "setting": "male NMRI albino mice [2]", "result": 0.74, "unit": "mg/kg"}, {"measurement": "ED50", "setting": "male NMRI albino mice [3]", "result": 0.74, "unit": "mg/kg"}, {"measurement": "Sleeping time", "setting": "male NMRI albino mice [4]; 2 mg/kg i.p., pentobarbital 40 mg/kg i.p., raw data of single animals", "result": "45 min and 40 min and 41 min and 54 min and 59 min and 46 min and 58 min and 48 min"}, {"measurement": "effect on sleeping time", "setting": "male NMRI albino mice [4]; 2 mg/kg, P<0.001", "result": "increased the sleeping time"}, {"measurement": "latency of entrance to the dark compartment", "setting": "male NMRI albino mice [5]; 1 mg/kg i.p., testing day, raw data of single animals", "result": "262 s and 260 s and 299 s and 240 s and 320 s and 200 s and 206 s and 333 s"}, {"measurement": "effect on latency to enter the dark compartment", "setting": "male NMRI albino mice [5]; 1 mg/kg, compared to vehicle, P<0.001", "result": "significantly decreased the latency"}]}
